Assay results published in article PMC10008690.
Read-outs that look alike come from different tables or passages of the source. Results are given in words; binding and its absence hold for the method and conditions named. In cells and extracts the contact can be indirect. Some binding calls cover weakened binding; strength is not graded here. For part of these data: Tags and fused reporters may be left off the sequences shown.

Protein sequences, listed by entry. Tags and fused reporters are not part of them.
UniProt P46934: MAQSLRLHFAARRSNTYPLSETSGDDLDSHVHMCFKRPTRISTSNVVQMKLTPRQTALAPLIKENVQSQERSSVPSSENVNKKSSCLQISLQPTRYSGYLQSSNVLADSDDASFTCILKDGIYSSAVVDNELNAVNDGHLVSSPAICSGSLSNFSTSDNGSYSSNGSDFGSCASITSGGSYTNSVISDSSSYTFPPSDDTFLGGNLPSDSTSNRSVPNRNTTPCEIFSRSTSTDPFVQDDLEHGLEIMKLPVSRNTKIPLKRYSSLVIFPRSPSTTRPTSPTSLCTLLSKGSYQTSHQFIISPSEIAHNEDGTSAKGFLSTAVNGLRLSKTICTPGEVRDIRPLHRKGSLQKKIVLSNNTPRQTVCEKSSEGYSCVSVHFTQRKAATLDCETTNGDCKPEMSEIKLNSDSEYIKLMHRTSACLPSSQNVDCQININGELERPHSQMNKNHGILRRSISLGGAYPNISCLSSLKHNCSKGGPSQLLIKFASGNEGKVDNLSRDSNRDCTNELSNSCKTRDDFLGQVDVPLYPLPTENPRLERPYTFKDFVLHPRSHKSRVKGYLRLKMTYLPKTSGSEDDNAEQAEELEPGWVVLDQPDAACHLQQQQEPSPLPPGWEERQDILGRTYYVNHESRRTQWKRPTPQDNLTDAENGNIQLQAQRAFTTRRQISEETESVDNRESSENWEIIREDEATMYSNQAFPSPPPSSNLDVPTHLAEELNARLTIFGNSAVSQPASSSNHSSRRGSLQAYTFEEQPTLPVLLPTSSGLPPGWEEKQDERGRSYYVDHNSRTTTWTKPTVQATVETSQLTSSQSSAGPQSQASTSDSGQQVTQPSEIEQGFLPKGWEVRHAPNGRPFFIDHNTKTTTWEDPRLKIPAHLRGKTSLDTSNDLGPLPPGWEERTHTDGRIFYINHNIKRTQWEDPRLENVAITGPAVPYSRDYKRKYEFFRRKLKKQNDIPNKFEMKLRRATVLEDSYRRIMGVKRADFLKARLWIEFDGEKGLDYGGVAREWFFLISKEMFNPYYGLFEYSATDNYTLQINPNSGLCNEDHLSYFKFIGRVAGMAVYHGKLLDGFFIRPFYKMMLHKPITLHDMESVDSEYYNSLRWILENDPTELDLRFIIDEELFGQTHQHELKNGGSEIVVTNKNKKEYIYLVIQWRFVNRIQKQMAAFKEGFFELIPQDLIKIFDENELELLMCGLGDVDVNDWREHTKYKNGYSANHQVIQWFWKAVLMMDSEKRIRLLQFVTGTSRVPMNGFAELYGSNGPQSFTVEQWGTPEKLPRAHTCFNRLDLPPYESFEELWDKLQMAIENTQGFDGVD

Assays:
[1] = target: T1, GST-HMGCL fusion protein (human) (UniProt P35914); assay: pull-down; 10 μg of GST fusion protein incubated with cell lysates for 4 hours, then GST-Sepharose beads for 4 hours; western blot; only the target purified
T1 sequence: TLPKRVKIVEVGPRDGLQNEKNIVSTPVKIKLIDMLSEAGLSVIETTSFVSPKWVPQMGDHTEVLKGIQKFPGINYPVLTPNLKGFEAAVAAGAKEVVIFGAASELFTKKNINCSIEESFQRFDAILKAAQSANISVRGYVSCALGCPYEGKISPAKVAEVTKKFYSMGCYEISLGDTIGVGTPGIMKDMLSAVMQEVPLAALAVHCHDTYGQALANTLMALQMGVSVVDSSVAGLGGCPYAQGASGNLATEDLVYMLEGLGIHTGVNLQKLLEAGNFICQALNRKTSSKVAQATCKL

[2] = target: T2, exogenous HMGCL (in 293T cells) (human) (UniProt P35914); assay: co-IP; exogenous HMGCL and NEDD4 expressed in 293T cells; lysis in 50 mM Tris-HCl pH 8.0, 150 mM NaCl, 1% NP-40; Flag beads overnight at 4 °C; western blot
T2 sequence: T1 sequence

[3] = target: T3, Flag-HMGCL (3-hydroxy-3-methylglutaryl-CoA lyase, exogenous, in lung cancer cells) (human) (UniProt P35914); assay: co-IP; HA-IKKβ and Flag-HMGCL expressed in lung cancer cells; lysis 48 h after transfection in 50 mM Tris-HCl pH 8.0, 150 mM NaCl, 1% NP-40; Flag beads overnight at 4 °C; western blot
T3 sequence: T1 sequence

[4] = target: T1, GST-HMGCL fusion protein (human); assay: pull-down; 10 μg of GST fusion protein incubated with cell lysates for 4 hours, then GST-Sepharose beads for 4 hours; western blot; only the target purified; remark: listed apart in the source
[5] = target: endogenous NEDD4 (human (endogenous in H1299 and A549)) (UniProt P46934); assay: co-IP; endogenous proteins, H1299 and A549 cells lysed with IP lysis buffer; anti-NEDD4 antibody overnight; western blot
[6] = target: T4, endogenous IKKβ (human (endogenous in A549 and H1299)) (UniProt O14920); assay: co-IP; endogenous proteins, A549 and H1299 cells lysed with IP lysis buffer; anti-IKKβ antibody overnight; western blot
T4 sequence: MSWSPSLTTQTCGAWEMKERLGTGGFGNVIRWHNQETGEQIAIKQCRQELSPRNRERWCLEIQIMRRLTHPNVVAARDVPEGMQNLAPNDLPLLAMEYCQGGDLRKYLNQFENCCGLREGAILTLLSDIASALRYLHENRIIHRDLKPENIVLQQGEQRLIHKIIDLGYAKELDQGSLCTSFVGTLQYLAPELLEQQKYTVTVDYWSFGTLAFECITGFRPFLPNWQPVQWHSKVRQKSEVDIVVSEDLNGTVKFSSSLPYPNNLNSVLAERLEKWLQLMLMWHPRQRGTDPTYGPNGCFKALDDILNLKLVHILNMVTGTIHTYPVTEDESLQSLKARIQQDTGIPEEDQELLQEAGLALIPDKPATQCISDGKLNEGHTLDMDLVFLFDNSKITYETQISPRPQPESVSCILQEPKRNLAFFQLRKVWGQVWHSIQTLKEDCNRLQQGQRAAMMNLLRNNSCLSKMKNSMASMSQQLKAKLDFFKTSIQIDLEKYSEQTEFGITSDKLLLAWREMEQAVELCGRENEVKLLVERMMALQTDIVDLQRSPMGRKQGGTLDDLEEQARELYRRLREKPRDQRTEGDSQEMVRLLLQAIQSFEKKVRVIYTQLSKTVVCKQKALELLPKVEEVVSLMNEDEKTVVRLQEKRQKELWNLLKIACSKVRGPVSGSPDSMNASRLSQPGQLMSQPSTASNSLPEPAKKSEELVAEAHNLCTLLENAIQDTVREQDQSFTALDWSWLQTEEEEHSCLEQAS

## endogenous NEDD4 (from UniProt P46934 1-1319) (enzyme)
[1]
  binding: binds

## exogenous NEDD4 (in 293T cells) (from UniProt P46934 1-1319) (enzyme)
[2]
  binding: binds

B1: HA-IKKβ (exogenous) (enzyme, UniProt O14920 1-756)
chain: T4 sequence
[3]
  binding: binds

B2: endogenous IKKβ (enzyme, UniProt O14920 1-756)
chain: T4 sequence
[4]
  binding: binds

B3: endogenous HMGCL (enzyme, UniProt P35914 28-325)
chain: T1 sequence
[5]
  binding: binds
[6]
  binding: binds
